Experimental data as given in PubChem BioAssay AID1345085 (National Center for Advancing Translational Sciences (NCATS), 2018).
The inconclusive results got no clear call from the source; some entries with a clear call stand among them for comparison. A potency beside an inconclusive call is a rough fit, not a confirmed value. Active and inactive are the calls of the source. The call rests on the fitted dose curve; in most records, active means well fitted cell-killing curve with a large enough effect; inconclusive means small, poorly fitted or top-dose-only effect, or effect the other way; inactive means no such curve, though single readings can be large or run the other way.

The molecules below were run on Jar (assay: Confirmatory qHTS for gynecologic anti-cancer compounds from libraries of approved drugs and bioactive compounds). Conditions: gynecologic cancer cell panel viability, ATPlite luminescence, 48 h; series mostly up to 57.6 µM; activity change, negative = viability loss: at the top concentration.
Method in brief: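 Seeding 1,000 cells per well preceded overnight (16 h) attachment, after which 48 h drug treatment across 57.5 uM–0.977 nM (11 points) was applied. Remaining cellular ATP, detected by ATPlite luminescence, defined IC50.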
Further: nearly all actives have a fitted effect of over 55% in size.
On the % scale 0 is the no-effect control and ±100 the full control effect; potency means the concentration at half of the fitted maximal effect.

| Structure (SMILES) | Potency | activity change, negative = viability loss |
| --- | --- | --- |
| CCN1CCN(Cc2ccc(Nc3ncc(F)c(-c4cc(F)c5nc(C)n(C(C)C)c5c4)n3)nc2)CC1 | inconclusive: 8.63 µM [cytotoxic, full curve] |  |
| CCCC(=O)O[C@]1(C(=O)CCl)[C@@H](C)C[C@H]2[C@@H]3CCC4=CC(=O)C=C[C@]4(C)[C@@]3(F)C(=O)C[C@@]21C | active: 43.2 µM |  |
| Cc1cc(C(C)Nc2ccccc2C(=O)O)c2nc(N3CCOCC3)cc(=O)n2c1 (configuration not stated) | active: 0.968 µM |  |
| COc1cc2c(NC3CCN(C(C)C)CC3)nc(C3CCCCC3)nc2cc1OCCCN1CCCC1 | active: 10.9 µM |  |
| O=C1c2c(O)ccc(O)c2C(=O)c2c(NCCNCCO)ccc(NCCNCCO)c21 | inconclusive: 1.93 µM [cytotoxic, full curve] |  |
| O=C(NOC[C@H](O)CO)c1ccc(F)c(F)c1Nc1ccc(I)cc1F | inconclusive: 17.2 µM [rising, partial curve, poor fit] |  |
| CCC1C(=O)N(C)c2cnc(Nc3ccc(C(=O)NC4CCC(N5CCN(CC6CC6)CC5)CC4)cc3OC)nc2N1C(C)C (configuration not stated) | active: 0.0611 µM |  |
| Nc1ncn([C@@H]2O[C@H](CO)[C@@H](O)[C@H]2O)c(=O)n1 | inconclusive: 0.217 µM [rising, full curve, poor fit] |  |
| CC(C)c1nn(-c2c(Cl)cccc2Cl)c2nc(Cc3ccc(OCCO)cc3)[nH]c(=O)c12 | inconclusive: 21.7 µM [rising, partial curve] |  |
| Cc1ccn(-c2ccc(-c3ncco3)cc2)c(=O)c1-c1ccc2nc(N)ncc2c1 |  | inactive: -26.5% |
| CN1CCCC(n2nc(Cc3ccc(Cl)cc3)c3ccccc3c2=O)CC1 (configuration not stated) | inconclusive: 43.2 µM [cytotoxic, single point] |  |
| Cc1nc(NC(=O)N2CCCC2C(N)=O)sc1-c1csc(C(C)(C)C)n1 (configuration not stated) | active: 21.7 µM |  |
| Nc1ccn([C@@H]2O[C@H](CO)[C@@H](O)C2(F)F)c(=O)n1 |  | inactive: -22.8% |
| CCN(CC)CCNC(=O)c1c(C)[nH]c(/C=C2\C(=O)Nc3ccc(F)cc32)c1C | active: 25.1 µM |  |
| COCCOc1ccc2c(c1)ncn2-c1ccc2cccc(N3CCC(N)CC3)c2n1 |  | inactive: 12.2% |
| CC(C)C[C@H](NC(=O)[C@@H](NC(=O)c1cccc(-c2ccccc2)n1)[C@@H](C)O)B(O)O | inconclusive: 0.0432 µM [cytotoxic, full curve, poor fit] |  |

| Structure (SMILES) | Potency | activity change, negative = viability loss |
| --- | --- | --- |
| Nc1cccc(-c2cc3c(Oc4cccc(O)c4)ncnc3[nH]2)c1 | inconclusive: 8.63 µM [cytotoxic, partial curve, poor fit] |  |
| CC(C)C[C@H](NC(=O)[C@H](CCc1ccccc1)NC(=O)CN1CCOCC1)C(=O)N[C@@H](Cc1ccccc1)C(=O)N[C@@H](CC(C)C)C(=O)[C@@]1(C)CO1 | inconclusive: 0.432 µM [rising, full curve] |  |
| CN1C2CCC1CC(OC(=O)[C@H](CO)c1ccccc1)C2 (some centres not stated) |  | inactive: -0.748% |
| COc1cc(Nc2ncc3c(n2)-c2ccc(Cl)cc2C(c2c(F)cccc2OC)=NC3)ccc1C(=O)O | inconclusive: 6.85 µM [cytotoxic, partial curve, poor fit] |  |
| Cc1cncc2cccc(S(=O)(=O)N3CCCN(C(=O)CN)C[C@@H]3C)c12 | inconclusive: 1.37 µM [cytotoxic, full curve, poor fit] |  |
| O=C(Nc1cn[nH]c1-c1nc2ccc(CN3CCOCC3)cc2[nH]1)NC1CC1 | inconclusive: 19.3 µM [rising, partial curve] |  |
| Cc1ccccc1C(OCCN(C)C)c1ccccc1 (configuration not stated) | inconclusive: 12.2 µM [rising, partial curve, poor fit] |  |
| CC[C@@]1(O)C(=O)OCc2c1cc1n(c2=O)Cc2cc3cc(O)ccc3nc2-1 | inconclusive: 0.968 µM [cytotoxic, full curve, poor fit] |  |
| OCCNC1CCCc2c1[nH]c1ccc(-c3ccccc3)cc21 (configuration not stated) | inconclusive: 30.6 µM [cytotoxic, partial curve, poor fit] |  |
| CCc1cccc(CC)c1NC(=O)N1Cc2[nH]nc(NC(=O)c3ccc(N4CCN(C)CC4)cc3)c2C1 | inconclusive: 21.7 µM [cytotoxic, partial curve, poor fit] |  |
| COc1ccc(-c2nc3ccc(C4=NNC(=O)CC4C)cc3[nH]2)cc1 (configuration not stated) | active: 21.7 µM |  |
| CC(=O)NCC(=O)N1C2CCC1c1cc(Nc3ncc(C(F)(F)F)c(NC4CCC4)n3)ccc12 (configuration not stated) | inconclusive: 3.06 µM [cytotoxic, full curve] |  |
| O=C(O)C1(Cc2cccc(Nc3nccs3)n2)CCC(Oc2cccc(Cl)c2F)CC1 (configuration not stated) | inconclusive: 24.3 µM [cytotoxic, partial curve, poor fit] |  |
| c1cc(N[C@@H]2CCNC2)nc(-c2cnc3ccc(-c4cn[nH]c4)cn23)c1 | inconclusive: 1.09 µM [cytotoxic, full curve] |  |
| CCCS(=O)c1ccc2nc(NC(=O)OC)[nH]c2c1 (configuration not stated) | inconclusive: 0.0685 µM [rising, partial curve] |  |
| CC1=C(CO)C(=O)O[C@@H]([C@@H](C)[C@H]2CC[C@H]3[C@@H]4C[C@H]5O[C@]56[C@@H](O)C=CC(=O)[C@]6(C)[C@H]4CC[C@]23C)C1 | active: 8.41 µM |  |

Some of the entries above, set out differently:
Structure (SMILES) | Potency | activity change, negative = viability loss
OCCNC1CCCc2c1[nH]c1ccc(-c3ccccc3)cc21 (configuration not stated) | inconclusive: 30.6 µM [cytotoxic, partial curve, poor fit] | 
CCc1cccc(CC)c1NC(=O)N1Cc2[nH]nc(NC(=O)c3ccc(N4CCN(C)CC4)cc3)c2C1 | inconclusive: 21.7 µM [cytotoxic, partial curve, poor fit] | 
